Drawing on paper PMC4960319, this text covers binding for 1 substance.

Protein sequences, listed by entry. Tags and fused reporters are not part of them. Lines headed by an entry give the natural chain unless they say otherwise; changes in a name come on top. Residues count along the entry.
UniProt Q7AKG9, residues 5-227: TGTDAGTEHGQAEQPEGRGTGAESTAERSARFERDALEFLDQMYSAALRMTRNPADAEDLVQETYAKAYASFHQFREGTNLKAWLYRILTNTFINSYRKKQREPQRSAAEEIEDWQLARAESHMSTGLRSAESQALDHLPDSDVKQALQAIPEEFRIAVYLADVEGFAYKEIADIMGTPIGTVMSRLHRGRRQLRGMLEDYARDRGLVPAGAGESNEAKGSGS
UniProt Q7AKG8: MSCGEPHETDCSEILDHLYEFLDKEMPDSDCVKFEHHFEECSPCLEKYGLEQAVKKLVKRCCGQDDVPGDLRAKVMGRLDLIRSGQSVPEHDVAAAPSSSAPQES

These are yes or no findings as the source states them, for the method shown. Binding calls can cover weak binding; strength is not graded here.

The assay has as its target σ^R (sigma factor SigR) from Streptomyces coelicolor, residues 5-227, tagless (Streptomyces coelicolor) (UniProt Q7AKG9). The experiment in a line: ITC; RsrA mutants (values in Supplementary Table 1); 35 °C, 50 mM Tris pH 7.5, 100 mM NaCl, 2 mM DTT; direct titration for weaker binding mutants (10 μM RsrA in the cell, 100 μM σ^R in the syringe); RsrA preincubated with ZnCl2 and buffer exchanged where zinc was included; both purified. On the technique in general: In ITC the heat of successive injections is recorded.

With RsrA* Cys41Ser (from UniProt Q7AKG8), the binding entry is recorded as “binds”.
